{"source": "PubChem BioAssay AID2685", "about": "(National Center for Advancing Translational Sciences (NCATS), 2010)", "note": "About 2,100 (0.66%) of roughly 320,000 compounds were called active. Inconclusive results, whose numbers are uncertain, are shown with a selection of clear calls. Calls follow the shape of the dose curve; as a rule, active = well fitted inhibition curve with a large enough effect in the signal ratio, with a control signal flat (not every such curve was filed as active); inconclusive = small, poorly fitted or top-dose-only effect, or effect the other way, or a change in a side signal; inactive = flat fitted curve, though single readings scatter; the % refers to the signal ratio. Potencies beside an inconclusive call are fits to weak or partial responses and may not hold up. % is scaled to controls: 0 for no effect and ±100 for the full control effect; potency is read from the fitted curve at half-maximal effect.", "data": [{"assay": "qHTS Assay for Lipid Storage Modulators in Drosophila S3 Cells", "settings": "BODIPY lipid droplet fluorescence, 18-24 h, cells fed with added oleic acid; lipid storage change, negative = inhibition: at 46.1 µM (top of the series) unless noted", "procedure,_shortened": "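Drosophila S3 cells loaded with oleic acid (400 uM, as added) and compounds at several concentrations; lipid droplets imaged by 488-nm laser-scanning cytometry, 500–530 nm intensity and object ratio to cell channel. Percent activity normalized to 20 uM Triacsin C.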", "values": [{"smiles": "Cc1cc(N2CCN(C)CC2)nc2ccc(NC(=S)N3CCN(c4ccccn4)CC3)cc12", "lipid storage change, negative = inhibition": "inconclusive: 25%"}, {"smiles": "COC(=O)c1cn(Cc2ccccn2)c(=O)c2ccccc12", "lipid storage change, negative = inhibition": "inconclusive: 12.4%"}, {"smiles": "Cc1ccc(C2=C/C(=C\\c3cccnc3)C(=O)O2)cc1", "Potency": "inconclusive: 1.3 µM [falling, partial curve, poor fit]"}, {"smiles": "COc1cc(NC(=O)COC(=O)/C=C/c2ccc(Cl)cc2Cl)cc(OC)c1", "lipid storage change, negative = inhibition": "inconclusive: 19.3%"}, {"smiles": "CC1=NN(c2ccccc2)C(=O)/C1=C\\c1cc(C)n(C)c1C", "lipid storage change, negative = inhibition": "inconclusive: -25.9%"}, {"smiles": "CCOC(=O)c1ccc(-c2nnc(-c3ccc(Cl)cc3Cl)o2)cc1", "lipid storage change, negative = inhibition": "inconclusive: -6.68%"}, {"smiles": "O=C(CNC(=O)c1ccc(Br)o1)NNC(=O)c1ccc(Br)cc1", "lipid storage change, negative = inhibition": "inconclusive: 2.72%"}, {"smiles": "CCN(CC(=O)Nc1ccc(S(=O)(=O)N2CCCC2)cc1)CC(=O)Nc1cccc(OC)c1", "lipid storage change, negative = inhibition": "inconclusive: -5.91%"}, {"smiles": "O=C(CCCl)N1CCN(c2nc(-c3ccccc3)cs2)CC1", "lipid storage change, negative = inhibition": "inconclusive: -22.9%"}, {"smiles": "CC(=O)c1c(C)[nH]c(C(=O)CSc2nnc(-c3ccco3)o2)c1C", "lipid storage change, negative = inhibition": "inconclusive: 7.33%"}, {"smiles": "COc1ccc(CN=C2Nc3ccccc3CS2)cc1", "Potency": "inconclusive: 29.1 µM [falling, single point]"}, {"smiles": "Cc1oc(-c2ccc(Cl)cc2)nc1CN1CCCC(C(=O)NC2CC2)C1", "note": "(stereo not drawn)", "Potency": "inconclusive: 29.1 µM [activator, single point]"}, {"smiles": "Cc1cnccc1CN(C)Cc1cn(C)nc1-c1cccc(Cl)c1", "lipid storage change, negative = inhibition": "inconclusive: 38.9%"}, {"smiles": "CNC(=S)N(CCc1ccc(OC)c(OC)c1)Cc1cc2c(C)cc(C)cc2[nH]c1=O", "lipid storage change, negative = inhibition": "inconclusive: -9.1%"}, {"smiles": "CCCN1CCN(CCCNC(=O)c2cc3c(=O)n(C)c4ccccc4c3n2C)CC1", "Potency": "inconclusive: 5.8 µM [activator, partial curve]"}, {"smiles": "CC1CCCN(C(=O)c2cccc(S(=O)(=O)N3CCCc4ccccc43)c2)C1", "note": "(stereo not drawn)", "Potency": "inconclusive: 6.51 µM [activator, partial curve, poor fit]"}, {"smiles": "COc1ccc(C2OC34CCCCC3C(C#N)(C#N)C2(C#N)C(=N)O4)cc1", "note": "(stereo not drawn)", "lipid storage change, negative = inhibition": "inconclusive: 17.5%"}, {"smiles": "C/C(=N\\NC(=O)c1cc(C)oc1C)c1ccc(N2CCOCC2)cc1", "Potency": "inconclusive: 6.51 µM [rising, single point]"}, {"smiles": "Cc1cc(C)c(S(=O)(=O)N2CCCOC2CNC(=O)C(=O)NCCC2=CCCCC2)c(C)c1", "note": "(stereo not drawn)", "Potency": "inconclusive: 1.3 µM [falling, full curve]"}, {"smiles": "COc1cccc(NC(=O)CCNC(=O)c2ccccc2Cl)c1", "lipid storage change, negative = inhibition": "inactive"}, {"smiles": "Clc1cccc(-c2ccc3ncnc(NCc4cccs4)c3c2)c1", "lipid storage change, negative = inhibition": "inconclusive: 29.2%"}, {"smiles": "O=C(N/N=C/c1cc(Cl)cc([N+](=O)[O-])c1O)C(O)(c1ccccc1)c1ccccc1", "lipid storage change, negative = inhibition": "inconclusive: -13.1%"}, {"smiles": "COc1ccc(OC)c(C(c2nnnn2C2CCCC2)N2CCN(c3ccc(F)cc3)CC2)c1", "note": "(stereo not drawn)", "Potency": "inconclusive: 7.31 µM [falling, partial curve]"}, {"smiles": "Cc1cc(-c2ccc(Cl)cc2)n2nc(N)nc2n1", "Potency": "inconclusive: 10.3 µM [activator, partial curve]"}, {"smiles": "O=C(O)C1=C[C@H](c2cccs2)C[C@H](OCc2ccc(CO)cc2)O1", "lipid storage change, negative = inhibition": "inconclusive: 14%"}, {"smiles": "O=C(c1ccc(F)cc1)C1CCN(C(=O)NC2CCCCC2)CC1", "lipid storage change, negative = inhibition": "inconclusive: -42.6%"}, {"smiles": "Nn1c(Cc2cccc3ccccc23)nnc1SCCOc1ccc(F)cc1", "lipid storage change, negative = inhibition": "inconclusive: 28.6%"}, {"smiles": "COc1ccccc1C1=NC(c2ccc(F)cc2)N=C1C", "note": "(stereo not drawn)", "lipid storage change, negative = inhibition": "inconclusive: 3.55%"}, {"smiles": "O=C(/C=C/c1ccccc1)NC(=S)Nc1ccc2c3c(cccc13)CC2", "Potency": "inconclusive: 2.06 µM [activator, full curve, poor fit]"}, {"smiles": "COc1ccccc1CNC(=O)C(NS(=O)(=O)c1ccc2c(c1)OCCO2)C(C)C", "note": "(stereo not drawn)", "lipid storage change, negative = inhibition": "inconclusive: 11%"}, {"smiles": "CC(C)(C)C1CCc2c(sc(NC(=O)c3cccs3)c2C(=O)N2CCCCC2)C1", "note": "(stereo not drawn)", "lipid storage change, negative = inhibition": "inconclusive: 31.9%"}, {"smiles": "COc1cc(NC(=O)c2cc3c(C)nc4ccccc4c3o2)cc(OC)c1OC", "Potency": "inconclusive: 0.82 µM [activator, full curve, poor fit]"}, {"smiles": "COc1ccc(CC(=O)N2CCN(c3ccccc3OC)CC2)cc1", "lipid storage change, negative = inhibition": "inconclusive: 7.35%"}, {"smiles": "CC(C)N(C(=O)C[n+]1ccc(/C=N/O)cc1)C(C)C", "lipid storage change, negative = inhibition": "inconclusive: -10.3%"}, {"smiles": "Cc1ccc(C2CC(c3cccs3)=NN2C(=O)CCl)cc1", "note": "(stereo not drawn)", "lipid storage change, negative = inhibition": "inconclusive: -14.7%"}, {"smiles": "COC(=O)c1ccc(/C=N/NC(=O)CC(=O)NCC(C)C)cc1", "Potency": "inconclusive: 0.259 µM [activator, single point]"}, {"smiles": "CC(NC(=O)Cn1cc(Br)c([N+](=O)[O-])n1)c1ccccc1", "note": "(stereo not drawn)", "Potency": "inconclusive: 1.84 µM [activator, partial curve]"}, {"smiles": "CCOc1ccc(C(=O)NC(=S)Nc2ccc(N3CCCCC3)cc2)cc1[N+](=O)[O-]", "lipid storage change, negative = inhibition": "inconclusive: 0.949%"}, {"smiles": "CC1=CC2=NC(=O)/C(=C\\c3cccn3CCOc3ccc(C)c(C)c3)C(=N)N2O1", "lipid storage change, negative = inhibition": "inconclusive: 8.43%"}, {"smiles": "COC(=O)c1sc(NC(=O)CCCn2nc([N+](=O)[O-])cc2C)c(C(=O)OC)c1C", "Potency": "inconclusive: 1.3 µM [activator, single point]"}, {"smiles": "CCn1c(COc2cccc(C)c2)nnc1SCC(=O)Nc1cccc(C(=O)OC)c1", "lipid storage change, negative = inhibition": "inconclusive: -19.1%"}, {"smiles": "Cc1ccnc(OC(C(=O)O)C(OCc2ccccc2)(c2ccccc2)c2ccc(C(F)(F)F)cc2)n1", "note": "(stereo not drawn)", "Potency": "inconclusive: 7.31 µM [activator, partial curve, poor fit]"}, {"smiles": "Cn1c(=O)[nH]c(=O)c2c1nc(NC1CCCC1)n2Cc1ccccc1", "lipid storage change, negative = inhibition": "inconclusive: 17.2%"}, {"smiles": "O=C(Nc1ccc(Cl)c(S(=O)(=O)N2CCOCC2)c1)[C@@H]1CCCN1C(=O)c1cccs1", "lipid storage change, negative = inhibition": "inconclusive: 51%"}, {"smiles": "CCN(C(=O)Cn1cc(C(F)(F)F)ccc1=O)c1c(N)n(Cc2ccccc2)c(=O)[nH]c1=O", "lipid storage change, negative = inhibition": "inconclusive: 14.7%"}, {"smiles": "Fc1cccc(Cl)c1-c1nnc2ccc(N3CCOCC3)nn12", "Potency": "inconclusive: 18.4 µM [falling, single point]"}, {"smiles": "O=C(O)c1cccc(S(=O)(=O)Nc2ccc3[nH]c(=O)[nH]c3c2)c1", "Potency": "inconclusive: 0.731 µM [falling, full curve, poor fit]"}, {"smiles": "CC(NC(=O)CCC(=O)N1CCN(S(=O)(=O)c2ccc(Cl)cc2)CC1)c1ccccc1", "note": "(stereo not drawn)", "lipid storage change, negative = inhibition": "inconclusive: -3.52%"}, {"smiles": "O=C(NNc1nc2cc3c(cc2s1)OCCO3)c1ccc(F)cc1", "lipid storage change, negative = inhibition": "inconclusive: 10.5%"}, {"smiles": "Cc1ccc(COC(=O)c2cc([N+](=O)[O-])ccc2N2CCOCC2)cc1", "lipid storage change, negative = inhibition": "inconclusive: -9.82%"}, {"smiles": "O=C(Nc1ccccc1C(=O)O)c1cccc(NC(=O)c2ccccc2Cl)c1", "lipid storage change, negative = inhibition": "inconclusive: 49.7%"}, {"smiles": "O=S(=O)(c1ccc(Br)cc1)N1CCCN(Cc2cccc(F)c2)CC1", "lipid storage change, negative = inhibition": "inconclusive: 0.321%"}, {"smiles": "CCn1c(Cc2cccs2)nnc1SCC(=O)NC1CC1", "lipid storage change, negative = inhibition": "inconclusive: 7.8%"}, {"smiles": "COC(=O)c1ccc(CNC(=O)COC(=O)CC23CC4CC(CC(Br)(C4)C2)C3)cc1", "Potency": "inconclusive: 0.517 µM [falling, partial curve]"}, {"smiles": "COc1ccc(Cl)cc1NC(=O)C(C)OC(=O)c1ccc(NS(=O)(=O)c2ccc3[nH]c(=O)[nH]c3c2)cc1", "note": "(stereo not drawn)", "Potency": "inconclusive: 11.6 µM [activator, partial curve, poor fit]"}, {"smiles": "COC(=O)c1cscc1S(=O)(=O)Cc1ccccc1", "lipid storage change, negative = inhibition": "inconclusive: 46.4%"}, {"smiles": "CC(NC(=O)CNC(=O)[C@@H]1Cc2ccccc2CN1)c1ccccc1", "note": "(stereo partly drawn)", "lipid storage change, negative = inhibition": "inconclusive: 23.1%"}, {"smiles": "CN(CC(=O)Nc1ccc(F)cc1)C(=O)c1cc(-c2cccs2)nn1-c1ccccc1", "Potency": "inconclusive: 29.1 µM [rising, single point]"}, {"smiles": "CC(C(=O)N1CCN(c2ccc([N+](=O)[O-])cc2)CC1)N1C(=O)C2CC=CCC2C1=O", "note": "(stereo not drawn)", "lipid storage change, negative = inhibition": "inconclusive: -35.9% [at 0.00295 µM]"}, {"smiles": "Cc1ccc(NC(=O)C2CCCN(S(=O)(=O)c3cccnc3)C2)c(C)c1", "note": "(stereo not drawn)", "Potency": "inconclusive: 25.9 µM [activator, partial curve, poor fit]"}, {"smiles": "CNC(=O)c1ccc(-c2ccccc2)s1", "lipid storage change, negative = inhibition": "inconclusive: 25.4%"}, {"smiles": "CCOC(=O)c1ccc(NC(=O)CSc2ccc(-c3cccnc3)nn2)cc1", "lipid storage change, negative = inhibition": "inconclusive: -1.66%"}, {"smiles": "CC(C)NS(=O)(=O)c1ccc(OCC(=O)N2CCN(c3ccccc3)CC2)cc1", "lipid storage change, negative = inhibition": "inconclusive: -7.7%"}, {"smiles": "COCCn1c(C)cc(C(=O)COC(=O)c2c(C)nn(Cc3ccccc3)c2C)c1C", "lipid storage change, negative = inhibition": "inconclusive: 21.4%"}, {"smiles": "COc1ccc2c(C=Nc3c(C)n(C)n(-c4ccccc4)c3=O)c(O)n(Cc3ccco3)c(=O)c2c1", "lipid storage change, negative = inhibition": "inconclusive: -1.6%"}, {"smiles": "Cc1nnc2ccc(-c3cccc(NS(=O)(=O)c4cc(F)ccc4F)c3)nn12", "lipid storage change, negative = inhibition": "inconclusive"}, {"smiles": "Nc1n[nH]c(N)c1N=Nc1ccc(Cl)cc1", "lipid storage change, negative = inhibition": "inconclusive: 45.9%"}, {"smiles": "Cc1ccc(S(=O)(=O)N2CCN(C(=O)C3COc4ccccc4O3)CC2)cc1C", "note": "(stereo not drawn)", "lipid storage change, negative = inhibition": "inconclusive: -5.28%"}, {"smiles": "Cc1cc(NC(=O)COC(=O)c2cc(S(=O)(=O)N3CCOCC3)ccc2N2CCCCC2)no1", "Potency": "inconclusive: 13 µM [activator, partial curve]"}, {"smiles": "O=S(=O)(NCCC1=CCCCC1)c1cccc(S(=O)(=O)N2CCOCC2)c1", "lipid storage change, negative = inhibition": "inconclusive: -25.1%"}, {"smiles": "Nc1nonc1-n1nnc(C(=O)N/N=C/c2ccoc2)c1-c1ccccc1", "lipid storage change, negative = inhibition": "inactive"}, {"smiles": "COc1ccc(N(C(=O)c2snc(C(N)=O)c2N)C(C(=O)NC2CCCC2)c2ccc(OC)c(OC)c2)cc1", "note": "(stereo not drawn)", "lipid storage change, negative = inhibition": "inconclusive: -189%"}, {"smiles": "COC(=O)c1nn(-c2ccc3c(c2)OCO3)cc1O", "lipid storage change, negative = inhibition": "inconclusive: 32.5%"}]}]}
